Test results reported in doi:10.1101/785527.
These are yes or no findings as the source states them, for the method shown. In cells and extracts the contact can be indirect. Some results given as binding are weak or reduced against the parent protein; the word gives no strength.

Amino acid sequences for entries named in this document (tags omitted).
UniProt P25106: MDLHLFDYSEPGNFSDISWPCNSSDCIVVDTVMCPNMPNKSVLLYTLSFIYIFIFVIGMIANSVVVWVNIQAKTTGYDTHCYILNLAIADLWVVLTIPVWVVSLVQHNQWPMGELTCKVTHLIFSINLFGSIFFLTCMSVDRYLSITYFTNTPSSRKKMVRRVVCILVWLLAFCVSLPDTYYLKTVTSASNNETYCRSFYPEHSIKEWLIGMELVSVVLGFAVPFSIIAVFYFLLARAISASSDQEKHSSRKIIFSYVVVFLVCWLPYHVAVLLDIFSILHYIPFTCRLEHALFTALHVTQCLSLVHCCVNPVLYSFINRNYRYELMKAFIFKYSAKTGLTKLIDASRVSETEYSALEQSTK
UniProt P29067: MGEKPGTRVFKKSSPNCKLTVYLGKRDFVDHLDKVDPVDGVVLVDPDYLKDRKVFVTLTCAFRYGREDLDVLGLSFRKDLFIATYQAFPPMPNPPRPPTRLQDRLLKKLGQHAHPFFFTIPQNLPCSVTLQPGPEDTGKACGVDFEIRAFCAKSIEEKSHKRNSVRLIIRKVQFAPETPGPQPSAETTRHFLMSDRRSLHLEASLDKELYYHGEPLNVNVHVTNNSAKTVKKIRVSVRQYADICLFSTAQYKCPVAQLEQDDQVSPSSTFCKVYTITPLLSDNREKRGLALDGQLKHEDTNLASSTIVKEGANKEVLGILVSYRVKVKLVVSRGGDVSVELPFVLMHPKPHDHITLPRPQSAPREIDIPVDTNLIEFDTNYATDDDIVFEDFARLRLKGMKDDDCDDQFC

Biological target: CXCR7 (atypical chemokine receptor 3, ACKR3), wild type, FLAG-tagged (human) (UniProt P25106)
Experiment: co-IP

β-arrestin 2 expressed in HEK-293 cells (from UniProt P29067 1-410)
binding: binds
